Experimental findings from article PMC7614022 are described below.

No constants are given. Whether binding was seen depends on the method and setting. In cells and extracts the contact can be indirect. Binding can be weak; no strength is given.

This assay deals with αvβ3 integrin (mouse (endogenous in TH2 cells)). In words: co-IP; TH2 cell lysate (30 mM Tris pH 7.4, 120 mM NaCl, 2 mM KCl, 1% Triton-X-100, 2 mM EDTA) incubated with anti-αv (CD51) or anti-β3 (CD61) antibody overnight at 4°C; protein A/G dynabeads; western blot with anti-Thy1.

B1: Thy1 (CD90) (protein, UniProt P01831 20-131)
chain: QKVTSLTACLVNQNLRLDCRHENNTKDNSIQHEFSLTREKRKHVLSGTLGIPEHTYRSRVTLSNQPYIKVLTLANFTTKDEGDYFCELQVSGANPMSSNKSISVYRDKLVKC
Take B1: the binding result is on record as “binds”.
